Reference: paper doi:10.1101/2020.12.02.407650
These are yes or no findings as the source states them, for the method shown. Binding seen in cells or lysates may run through a third protein. Some results given as binding are weak or reduced against the parent protein; the word gives no strength.

Protein sequences, listed by entry. Tags and fused reporters are not part of them.
UniProt P37238: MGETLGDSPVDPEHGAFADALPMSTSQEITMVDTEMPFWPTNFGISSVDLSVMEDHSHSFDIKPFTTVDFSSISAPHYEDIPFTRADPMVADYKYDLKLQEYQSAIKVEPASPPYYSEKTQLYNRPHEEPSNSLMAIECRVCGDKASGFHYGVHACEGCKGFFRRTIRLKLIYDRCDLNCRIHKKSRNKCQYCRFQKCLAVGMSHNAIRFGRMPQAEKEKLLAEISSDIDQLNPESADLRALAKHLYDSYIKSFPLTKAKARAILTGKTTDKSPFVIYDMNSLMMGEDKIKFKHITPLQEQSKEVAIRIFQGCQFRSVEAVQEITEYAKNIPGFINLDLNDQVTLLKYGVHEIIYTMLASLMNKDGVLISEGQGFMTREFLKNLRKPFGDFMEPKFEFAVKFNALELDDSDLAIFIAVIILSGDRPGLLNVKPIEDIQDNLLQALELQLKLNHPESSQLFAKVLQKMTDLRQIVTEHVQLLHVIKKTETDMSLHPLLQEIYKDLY

Molecular target: T1, PPARγ coactivator-1α (PGC-1α) (mouse (endogenous in brown and white adipocytes from mouse SVFs)) (UniProt O70343)
T1 sequence: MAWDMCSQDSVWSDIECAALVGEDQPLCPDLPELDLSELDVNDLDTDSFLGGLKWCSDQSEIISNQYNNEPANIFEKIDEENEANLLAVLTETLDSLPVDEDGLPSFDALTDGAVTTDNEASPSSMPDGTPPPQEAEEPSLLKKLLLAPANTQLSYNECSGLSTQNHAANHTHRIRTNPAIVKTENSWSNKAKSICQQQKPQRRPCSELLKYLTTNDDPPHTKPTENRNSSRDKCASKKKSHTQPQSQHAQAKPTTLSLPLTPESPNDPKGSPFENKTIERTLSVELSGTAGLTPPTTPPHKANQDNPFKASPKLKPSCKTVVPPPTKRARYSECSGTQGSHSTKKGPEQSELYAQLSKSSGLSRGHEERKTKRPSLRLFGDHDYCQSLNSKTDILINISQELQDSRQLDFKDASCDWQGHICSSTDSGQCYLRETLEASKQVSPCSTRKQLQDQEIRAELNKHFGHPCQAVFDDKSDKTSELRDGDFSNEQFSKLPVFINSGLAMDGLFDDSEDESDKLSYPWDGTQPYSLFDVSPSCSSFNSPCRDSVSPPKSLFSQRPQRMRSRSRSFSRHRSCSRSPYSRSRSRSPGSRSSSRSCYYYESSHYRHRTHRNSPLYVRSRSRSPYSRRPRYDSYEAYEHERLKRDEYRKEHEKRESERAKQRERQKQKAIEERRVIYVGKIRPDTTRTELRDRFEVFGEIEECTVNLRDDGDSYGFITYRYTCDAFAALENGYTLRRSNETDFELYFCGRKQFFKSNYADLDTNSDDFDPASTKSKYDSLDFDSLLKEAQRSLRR
Assay: co-IP

binding: binds
Substance: peroxisome proliferator-activated receptor gamma (PPARγ) (from UniProt P37238 1-505)
